According to the supplement of paper PMC8728848:
This is one part of the list.

Columns and labels:
Experiment in all cases: glycan array binding signal (z-score within array); higher = stronger binding
Details in all cases: glycan notation: IUPAC condensed, linker removed
[1] = molecular target: Neu5Ac(a2-6)Gal(b1-4)GlcNAc(b1-3)Gal(b1-4)GlcNAc(b1-3)Gal(b1-4)GlcNAc(b1-2)Man(a1-3)[Neu5Ac(a2-6)Gal(b1-4)GlcNAc(b1-3)Gal(b1-4)GlcNAc(b1-3)Gal(b1-4)GlcNAc(b1-2)Man(a1-6)]GalNAc
In short: (§1)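 Glycan array data were curated from 3228 arrays in the Consortium for Functional Glycomics database and kept only where the protein sequence was available. Glycan names were converted to IUPAC-condensed notation, and columns mapping to the same glycan were averaged. The binding signal is a within-array Z-score, averaged across arrays of the same protein sequence at different concentrations or buffers and across linkers. Negative Z-scores can be read as non-binding.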

[2] = molecular target: Neu5Ac(a2-6)Gal(b1-4)GlcNAc(b1-3)Gal(b1-4)GlcNAc(b1-3)GalNAc
In short: as §1

[3] = molecular target: Neu5Ac(a2-6)Gal(b1-4)GlcNAc(b1-3)Gal(b1-4)GlcNAc(b1-3)[Neu5Ac(a2-6)Gal(b1-4)GlcNAc(b1-3)Gal(b1-4)GlcNAc(b1-6)]GalNAc
In short: as §1

[4] = molecular target: Neu5Ac(a2-6)Gal(b1-4)GlcNAc(b1-3)Gal(b1-4)GlcNAc(b1-6)[Gal(b1-3)]GalNAc
In short: as §1

[5] = molecular target: Neu5Ac(a2-6)Gal(b1-4)GlcNAc(b1-3)Gal(b1-4)[Fuc(a1-3)]GlcNAc(b1-3)Gal(b1-4)[Fuc(a1-3)]GlcNAc
In short: as §1

[6] = molecular target: Neu5Ac(a2-6)Gal(b1-4)GlcNAc(b1-3)GalNAc
In short: as §1

[7] = molecular target: Neu5Ac(a2-6)Gal(b1-4)GlcNAc(b1-3)[Neu5Ac(a2-6)Gal(b1-4)GlcNAc(b1-6)]GalNAc
In short: as §1

[8] = molecular target: Neu5Ac(a2-6)Gal(b1-4)GlcNAc(b1-6)GalNAc
In short: as §1

[9] = molecular target: Neu5Ac(a2-6)Gal(b1-4)GlcNAc(b1-6)[Gal(b1-3)GlcNAc(b1-3)]Gal(b1-4)Glc
In short: as §1

[10] = molecular target: Neu5Ac(a2-6)Gal(b1-4)GlcNAc(b1-6)[Gal(b1-3)]GalNAc
In short: as §1

[11] = molecular target: Neu5Ac(a2-6)Gal(b1-4)GlcNAc6S
In short: as §1

Neu5Ac(a2-6)GalNAc = molecular target: Neu5Ac(a2-6)GalNAc
In short: as §1

[12] = molecular target: Neu5Ac(a2-6)GalNAc(b1-4)GlcNAc
In short: as §1

[13] = molecular target: Neu5Ac(a2-6)GalNAc(b1-4)GlcNAc6S
In short: as §1

[14] = molecular target: Neu5Ac(a2-6)GlcNAc(b1-4)GlcNAc
In short: as §1

[15] = molecular target: Neu5Ac(a2-6)GlcNAc(b1-4)GlcNAc(b1-4)GlcNAc
In short: as §1

Neu5Ac(a2-8)Neu5Ac = molecular target: Neu5Ac(a2-8)Neu5Ac
In short: as §1

[16] = molecular target: Neu5Ac(a2-8)Neu5Ac(a2-3)Gal(b1-3)GalNAc(b1-4)[Neu5Ac(a2-3)]Gal(b1-4)Glc
In short: as §1

[17] = molecular target: Neu5Ac(a2-8)Neu5Ac(a2-3)Gal(b1-3)GalNAc(b1-4)[Neu5Ac(a2-8)Neu5Ac(a2-3)]Gal(b1-4)Glc
In short: as §1

[18] = molecular target: Neu5Ac(a2-8)Neu5Ac(a2-3)Gal(b1-4)Glc
In short: as §1

[19] = molecular target: Neu5Ac(a2-8)Neu5Ac(a2-3)Gal(b1-4)GlcNAc
In short: as §1

[20] = molecular target: Neu5Ac(a2-8)Neu5Ac(a2-3)[Gal(b1-3)GalNAc(b1-4)]Gal(b1-4)Glc
In short: as §1

[21] = molecular target: Neu5Ac(a2-8)Neu5Ac(a2-3)[GalNAc(b1-4)]Gal(b1-4)Glc
In short: as §1

[22] = molecular target: Neu5Ac(a2-8)Neu5Ac(a2-8)Neu5Ac
In short: as §1

[23] = molecular target: Neu5Ac(a2-8)Neu5Ac(a2-8)Neu5Ac(a2-3)Gal(b1-4)Glc
In short: as §1

[24] = molecular target: Neu5Ac(a2-8)Neu5Ac(a2-8)Neu5Ac(a2-3)[Gal(b1-3)GalNAc(b1-4)]Gal(b1-4)Glc
In short: as §1

[25] = molecular target: Neu5Ac(a2-8)Neu5Ac(a2-8)Neu5Ac(a2-3)[GalNAc(b1-4)]Gal(b1-4)Glc
In short: as §1

[26] = molecular target: Neu5Ac(a2-8)Neu5Ac(a2-8)Neu5Ac(a2-8)Neu5Ac(a2-3)[GalNAc(b1-4)]Gal(b1-4)Glc
In short: as §1

[27] = molecular target: Neu5Ac(a2-8)Neu5Gc(a2-3)Gal(b1-4)GlcNAc
In short: as §1

[28] = molecular target: Neu5Ac(b2-6)Gal(b1-4)GlcNAc
In short: as §1

Neu5Ac(b2-6)GalNAc = molecular target: Neu5Ac(b2-6)GalNAc
In short: as §1

[29] = molecular target: Neu5Ac9Ac(a2-3)Gal(b1-3)GlcNAc
In short: as §1

[30] = molecular target: Neu5Ac9Ac(a2-3)Gal(b1-4)GlcNAc
In short: as §1

[31] = molecular target: Neu5Ac9Ac(a2-6)Gal(b1-4)GlcNAc
In short: as §1

[32] = molecular target: Neu5Gc(a2-3)Gal(b1-3)GlcNAc
In short: as §1

[33] = molecular target: Neu5Gc(a2-3)Gal(b1-3)[Fuc(a1-4)]GlcNAc
In short: as §1

Neu5Gc(a2-3)Gal(b1-4)Glc = molecular target: Neu5Gc(a2-3)Gal(b1-4)Glc
In short: as §1

[34] = molecular target: Neu5Gc(a2-3)Gal(b1-4)GlcNAc
In short: as §1

[35] = molecular target: Neu5Gc(a2-3)Gal(b1-4)GlcNAc(b1-3)Gal(b1-4)GlcNAc(b1-2)Man(a1-3)[Neu5Gc(a2-3)Gal(b1-4)GlcNAc(b1-3)Gal(b1-4)GlcNAc(b1-2)Man(a1-6)]Man(b1-4)GlcNAc(b1-4)GlcNAc
In short: as §1

[36] = molecular target: Neu5Gc(a2-3)Gal(b1-4)[Fuc(a1-3)]GlcNAc
In short: as §1

[37] = molecular target: Neu5Gc(a2-6)Gal(b1-4)GlcNAc
In short: as §1

Neu5Gc(a2-6)GalNAc = molecular target: Neu5Gc(a2-6)GalNAc
In short: as §1

[38] = molecular target: Neu5Gc(a2-8)Neu5Ac(a2-3)Gal(b1-4)GlcNAc
In short: as §1

[39] = molecular target: Neu5Gc(a2-8)Neu5Gc(a2-3)Gal(b1-4)GlcNAc
In short: as §1

[40] = molecular target: Neu5Gc(a2-8)Neu5Gc(a2-3)Gal(b1-4)GlcNAc(b1-3)Gal(b1-4)GlcNAc
In short: as §1

B1: EUL D1A first (Oryza sativa) (protein)
chain: MFGFGHHHNQAPAAPSDPNQIFKIFCRANENYCLTVRDSAVVLAPVNPKDEHQHWFKDMRFSTKVKDGEGMPAFALVNKATGLAVKHSLGQSHPVKLVPFNPEYEDASVLWTESKDVGKGFRCIRMVNNTRLNLDAFHGDKDHGGVRDGTTVVLWEWCKGDNQSWKILPWGPEAHSSSPGAATILEQKLISEEDLNSAVDHHHHHH
glycan array binding signal (z-score) [1]: 1.48
glycan array binding signal (z-score) [2]: -0.07
glycan array binding signal (z-score) [3]: 0.569
glycan array binding signal (z-score) [4]: 1.9
glycan array binding signal (z-score) [5]: -0.6
glycan array binding signal (z-score) [6]: -0.718
glycan array binding signal (z-score) [7]: 0.419
glycan array binding signal (z-score) [8]: -0.155
glycan array binding signal (z-score) [9]: -0.056
glycan array binding signal (z-score) [10]: -0.012
glycan array binding signal (z-score) [11]: -0.102
glycan array binding signal (z-score) (Neu5Ac(a2-6)GalNAc): -0.509
glycan array binding signal (z-score) [12]: -0.657
glycan array binding signal (z-score) [13]: 0.002
glycan array binding signal (z-score) [14]: -1.21
glycan array binding signal (z-score) [15]: -0.07
glycan array binding signal (z-score) (Neu5Ac(a2-8)Neu5Ac): 0.85
glycan array binding signal (z-score) [16]: 1.17
glycan array binding signal (z-score) [17]: -0.377
glycan array binding signal (z-score) [18]: -0.984
glycan array binding signal (z-score) [19]: -0.934
glycan array binding signal (z-score) [20]: -0.821
glycan array binding signal (z-score) [21]: 1.09
glycan array binding signal (z-score) [22]: -0.007
glycan array binding signal (z-score) [23]: 0.4
glycan array binding signal (z-score) [24]: -0.295
glycan array binding signal (z-score) [25]: -0.965
glycan array binding signal (z-score) [26]: -0.11
glycan array binding signal (z-score) [27]: -1.33
glycan array binding signal (z-score) [28]: -0.988
glycan array binding signal (z-score) (Neu5Ac(b2-6)GalNAc): 0.331
glycan array binding signal (z-score) [29]: -0.753
glycan array binding signal (z-score) [30]: 0.821
glycan array binding signal (z-score) [31]: -0.177
glycan array binding signal (z-score) [32]: -0.58
glycan array binding signal (z-score) [33]: -1.08
glycan array binding signal (z-score) (Neu5Gc(a2-3)Gal(b1-4)Glc): -0.152
glycan array binding signal (z-score) [34]: 0.3
glycan array binding signal (z-score) [35]: -0.561
glycan array binding signal (z-score) [36]: -0.04
glycan array binding signal (z-score) [37]: 1.52
glycan array binding signal (z-score) (Neu5Gc(a2-6)GalNAc): 2.42
glycan array binding signal (z-score) [38]: 0.111
glycan array binding signal (z-score) [39]: -0.766
glycan array binding signal (z-score) [40]: -0.654
